Reference: PubChem BioAssay AID1259308 (NCATS, 2017)
Screen: 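Genes whose loss raises luciferase production in HEK293 cells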 (primary screen). Cell system: human HEK293 embryonic kidney cells stably expressing firefly luciferase (HEK-CMV-Luc2-Hygro). Reagents: single siRNA against human genes, 0.8 pmol siRNA per well. Time to read-out: 72 h. Measurement: 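Reporter luminescence and viable-cell signal on separate replicate plates, given as percent of non-targeting control and median/MAD z-scores, plus per-cell luciferase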. Reading the numbers: total luciferase, z-score: higher = more reporter protein produced. Hit rule: 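An siRNA counts as active if its total luciferase robust z-score exceeds 3; genes with two or more such siRNAs out of three were retested with fresh siRNAs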. Meaning of the calls: active = raised luciferase; inactive = no rise.
In all, the deposit lists about 59,000 reagents; below is a random part of them. About 1,510 of all reagents (2.6%) count as active. 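Calls use total luciferase alone and ignore viability, so some active siRNAs may act by altering cell number.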 Reagents against one gene are numbered here. Further read-outs or replicates are left out here.

CCN1 (cellular communication network factor 1) #1: total luciferase, z-score = 2.4; outcome = inactive
CCN1 (cellular communication network factor 1) #2: total luciferase, z-score = 0.85; outcome = inactive
CCN1 (cellular communication network factor 1) #3: total luciferase, z-score = 0.33; outcome = inactive
SLC5A4 #1: total luciferase, z-score = 0.259; outcome = inactive
SLC5A4 #2: total luciferase, z-score = 0.388; outcome = inactive
SLC5A4 #3: total luciferase, z-score = 4.1; outcome = active
TIMCC (TIM double twin CX3C motif chaperone) #1: total luciferase, z-score = -0.587; outcome = inactive
TIMCC (TIM double twin CX3C motif chaperone) #2: total luciferase, z-score = -2.71; outcome = inactive
TIMCC (TIM double twin CX3C motif chaperone) #3: total luciferase, z-score = 0.343; outcome = inactive
NNT (nicotinamide nucleotide transhydrogenase) #1: total luciferase, z-score = 0.933; outcome = inactive
NNT (nicotinamide nucleotide transhydrogenase) #2: total luciferase, z-score = 0.352; outcome = inactive
NNT (nicotinamide nucleotide transhydrogenase) #3: total luciferase, z-score = -0.622; outcome = inactive
RAC3 (Rac family small GTPase 3) #1: total luciferase, z-score = -2.98; outcome = inactive
RAC3 (Rac family small GTPase 3) #2: total luciferase, z-score = 1.65; outcome = inactive
RAC3 (Rac family small GTPase 3) #3: total luciferase, z-score = 0.625; outcome = inactive
C9orf163 (chromosome 9 putative open reading frame 163) #1: total luciferase, z-score = -0.0913; outcome = inactive
C9orf163 (chromosome 9 putative open reading frame 163) #2: total luciferase, z-score = -0.185; outcome = inactive
C9orf163 (chromosome 9 putative open reading frame 163) #3: total luciferase, z-score = -0.415; outcome = inactive
HSPE1 (heat shock protein family E (Hsp10) member 1) #1: total luciferase, z-score = 1.21; outcome = inactive
HSPE1 (heat shock protein family E (Hsp10) member 1) #2: total luciferase, z-score = 1.68; outcome = inactive
HSPE1 (heat shock protein family E (Hsp10) member 1) #3: total luciferase, z-score = 2.88; outcome = inactive
ANKIB1 (ankyrin repeat and IBR domain containing 1) #1: total luciferase, z-score = -1.02; outcome = inactive
ANKIB1 (ankyrin repeat and IBR domain containing 1) #2: total luciferase, z-score = -0.682; outcome = inactive
ANKIB1 (ankyrin repeat and IBR domain containing 1) #3: total luciferase, z-score = 0.284; outcome = inactive
MYL12B (myosin light chain 12B) #1: total luciferase, z-score = -0.576; outcome = inactive
MYL12B (myosin light chain 12B) #2: total luciferase, z-score = -0.0939; outcome = inactive
MYL12B (myosin light chain 12B) #3: total luciferase, z-score = -0.731; outcome = inactive
STOML3 (stomatin like 3) #1: total luciferase, z-score = -0.359; outcome = inactive
STOML3 (stomatin like 3) #2: total luciferase, z-score = 2.64; outcome = inactive
STOML3 (stomatin like 3) #3: total luciferase, z-score = -0.823; outcome = inactive
H4C16 (H4 histone 16) #1: total luciferase, z-score = -0.11; outcome = inactive
H4C16 (H4 histone 16) #2: total luciferase, z-score = -1.02; outcome = inactive
H4C16 (H4 histone 16) #3: total luciferase, z-score = -0.662; outcome = inactive

Individual results from above.
RAC3 (Rac family small GTPase 3) #3, total luciferase, z-score → 0.625
Under “outcome”, MYL12B (myosin light chain 12B) #1 has inactive
C9orf163 (chromosome 9 putative open reading frame 163) #1, outcome: inactive
Value of C9orf163 (chromosome 9 putative open reading frame 163) #3 under “outcome”: inactive
CCN1 (cellular communication network factor 1) #1, total luciferase, z-score: 2.4
